The target of the assay is SKAP55 homologue (SKAP-HOM) (mouse (endogenous in Wehi 231)) (UniProt Q3UND0). Kind of assay: co-IP; SKAP-HOM immunoprecipitated from lysates of unstimulated Wehi 231 co/kd cells (1% Triton X-100, 10 mM Tris pH 7.5, 150 mM NaCl, 5 mM EDTA, 10 mM NaF), 3 h at 4°C; Western blots for SKAP-HOM, HPK1 and RIAM.

Protein sequences, listed by entry. Tags and fused reporters are not part of them.
UniProt Q3UND0: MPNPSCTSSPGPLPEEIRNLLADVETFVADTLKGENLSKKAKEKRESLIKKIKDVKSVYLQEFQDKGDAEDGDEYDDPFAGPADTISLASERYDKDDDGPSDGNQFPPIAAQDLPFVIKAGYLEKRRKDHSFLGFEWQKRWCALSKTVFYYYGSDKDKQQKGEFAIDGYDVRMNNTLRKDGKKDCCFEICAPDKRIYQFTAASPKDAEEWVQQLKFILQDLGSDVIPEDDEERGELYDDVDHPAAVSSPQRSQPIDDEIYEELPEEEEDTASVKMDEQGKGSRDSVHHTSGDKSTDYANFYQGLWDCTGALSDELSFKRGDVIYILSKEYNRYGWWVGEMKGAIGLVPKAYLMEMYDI

Our source for the binding values is publication PMC2931690.

Results are given in words; binding and its absence hold for the method and conditions named. Binding seen in cells or lysates may run through a third protein. Some entries that bind do so weakly or less than the wild type.

B1: Rap1-GTP-interacting adaptor molecule (RIAM) (protein, UniProt Q8R5A3 1-670)
chain: MGESNEDIDQMFSTLLGEMDLLTQSLGVDTLPPPDPNPPREEFNYTVGFKDLNESLNALEDQDLDALMADLVADISEAEQRTIQAQKESSQNQDRFALLRASDGQGTASGGYGASAAAIDVSHHEEALPPPPVEPMLDLLPPPPPPPPPELLSKEEEEAKAKADKIKLALEKLKEAKVKKLVVKVHMDDSSTKSLMVDERQLARDVLDNLFEKTHCDCNVDWCLYEIYPELQIERVFEDHENVVEVLSDWTRDTENKVLFLEKEERYAVFKNPQNFYLDNKGKKENKETNEKMNAKNKEYLLEESFCGTSIIVPELEGALYLKEDGKKSWKRRYFLLRASGIYYVPKGKTKTSRDLACFIQFENVNIYYGIQCKMKYKAPTDHCFVLKHPQIQKESQYIKYLCCDDARTLSQWVMGIRIAKYGKTLYDNYQRAVARAGLASRWTNLGTVGTPMPAQPSTVSSGLKTGTSQPNGQMPQAIPSAGPPLQEAQTQIETTKDEKQGLGNHSPGATRENHRPKSSLPPPPPPVRRSSDTCGSPALPSKVKGPGTCTFPHPPENFLPPPPPPPPEEDNSGLLPPPPPPPYLEEPPDFVPPPPPPAAVEDSALPPPPPPPPCLSQEITKSSPLPPKKPLVPPKRQENQGLPGAPGNSEQDFMSDLMKALQKKRGNIP
B1: the binding result was “binds”.
